# Paper PMC13156308
# Amino acid sequences for entries named in this document (tags omitted). A change or cut given only in a name is not applied to a line headed by its entry. Chains listed by the source or under a name are the forms on record and can include a tag or linker.
# UniProt P97310: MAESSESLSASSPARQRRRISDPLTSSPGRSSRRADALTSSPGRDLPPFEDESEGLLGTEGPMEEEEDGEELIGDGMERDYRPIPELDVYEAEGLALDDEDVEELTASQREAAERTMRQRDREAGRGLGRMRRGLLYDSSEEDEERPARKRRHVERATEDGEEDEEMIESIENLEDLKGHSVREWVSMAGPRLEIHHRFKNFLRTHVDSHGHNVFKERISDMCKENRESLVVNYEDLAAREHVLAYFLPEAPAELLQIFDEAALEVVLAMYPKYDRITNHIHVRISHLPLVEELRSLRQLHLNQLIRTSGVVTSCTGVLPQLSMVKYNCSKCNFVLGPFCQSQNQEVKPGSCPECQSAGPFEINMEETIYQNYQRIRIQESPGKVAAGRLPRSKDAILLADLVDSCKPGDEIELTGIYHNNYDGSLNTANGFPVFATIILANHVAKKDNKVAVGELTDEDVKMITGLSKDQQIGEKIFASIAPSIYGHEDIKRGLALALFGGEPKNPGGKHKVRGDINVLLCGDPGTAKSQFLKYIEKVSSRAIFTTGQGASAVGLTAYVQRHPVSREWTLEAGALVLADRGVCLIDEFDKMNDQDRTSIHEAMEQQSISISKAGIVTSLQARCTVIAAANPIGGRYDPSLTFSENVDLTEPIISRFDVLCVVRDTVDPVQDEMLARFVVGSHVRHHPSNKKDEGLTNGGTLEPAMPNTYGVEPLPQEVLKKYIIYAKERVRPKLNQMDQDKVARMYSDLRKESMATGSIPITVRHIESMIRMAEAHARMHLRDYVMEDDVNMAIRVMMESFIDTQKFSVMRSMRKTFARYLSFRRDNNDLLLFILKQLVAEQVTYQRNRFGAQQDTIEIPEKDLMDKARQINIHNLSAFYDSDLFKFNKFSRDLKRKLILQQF
# MCM2-2A-TurboID-3xHA (mouse) (P97310, form named): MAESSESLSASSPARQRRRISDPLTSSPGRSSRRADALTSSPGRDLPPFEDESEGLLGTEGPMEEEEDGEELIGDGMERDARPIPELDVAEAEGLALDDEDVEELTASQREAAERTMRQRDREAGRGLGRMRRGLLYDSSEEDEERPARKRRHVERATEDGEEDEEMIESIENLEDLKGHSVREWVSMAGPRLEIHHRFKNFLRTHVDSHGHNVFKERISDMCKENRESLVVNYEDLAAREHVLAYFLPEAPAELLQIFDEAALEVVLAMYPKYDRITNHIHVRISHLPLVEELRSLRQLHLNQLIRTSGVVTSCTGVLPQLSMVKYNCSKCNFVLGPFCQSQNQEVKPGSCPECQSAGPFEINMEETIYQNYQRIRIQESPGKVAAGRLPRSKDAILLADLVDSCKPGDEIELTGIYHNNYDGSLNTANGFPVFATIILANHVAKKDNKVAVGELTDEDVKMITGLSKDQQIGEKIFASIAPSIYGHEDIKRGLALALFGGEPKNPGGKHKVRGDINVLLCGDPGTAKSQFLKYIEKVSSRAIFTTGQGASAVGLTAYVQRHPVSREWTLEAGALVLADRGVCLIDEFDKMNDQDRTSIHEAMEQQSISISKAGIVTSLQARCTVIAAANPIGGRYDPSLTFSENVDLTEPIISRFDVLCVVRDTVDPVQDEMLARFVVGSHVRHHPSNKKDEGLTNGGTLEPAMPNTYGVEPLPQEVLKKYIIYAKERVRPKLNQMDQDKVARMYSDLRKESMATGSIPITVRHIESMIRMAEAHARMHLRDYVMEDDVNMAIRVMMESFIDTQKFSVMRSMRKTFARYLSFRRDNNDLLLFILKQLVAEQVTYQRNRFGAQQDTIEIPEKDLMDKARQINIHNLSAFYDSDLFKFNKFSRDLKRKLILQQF
# T1: POLE4-TurboID (mouse) (UniProt Q9CQ36)
# T1 sequence: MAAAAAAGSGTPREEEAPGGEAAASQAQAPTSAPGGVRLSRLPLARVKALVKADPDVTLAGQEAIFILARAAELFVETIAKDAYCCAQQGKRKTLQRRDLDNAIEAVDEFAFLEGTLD
# T2: POLE3-TurboID (mouse) (UniProt Q9JKP7)
# T2 sequence: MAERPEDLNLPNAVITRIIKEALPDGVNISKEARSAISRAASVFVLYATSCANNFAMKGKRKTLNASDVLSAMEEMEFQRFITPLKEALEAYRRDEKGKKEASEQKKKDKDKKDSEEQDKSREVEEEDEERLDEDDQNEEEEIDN
# Key:
# Test in all cases: proximity labelling; bait-TurboID stably expressed in S-phase-synchronised NIH3T3 cells, 500 uM biotin 1 h, RIPA lysis, streptavidin beads, LC-MS/MS, four replicates; enriched: bait/Control >2, P <0.05
# [1] = molecular target: MCM2-TurboID-3xHA (mouse) (mouse) (UniProt P97310)
# POLE4-TurboID (mouse) = molecular target: T1, POLE4-TurboID (mouse)
# POLE3-TurboID (mouse) = molecular target: T2, POLE3-TurboID (mouse)
# [2] = molecular target: MCM2-2A-TurboID-3xHA (mouse) (mouse) (UniProt P97310)
Binder,binding [1],binding (POLE4-TurboID (mouse)),binding (POLE3-TurboID (mouse)),binding [2]
"DNA polymerase alpha accessory subunit (POLA2) (protein, UniProt P33611 1-600) MAVSTQQLAEELQIFGLDYEDSLLEKLAELCVLYRQTEDGMVSELIAFCTSAGKTCLTVDILNSFEYEVLNKKLSKAWHSASKDSGHAGTRDIVSIQELIEAEEEEETLLSSYTTPSKGPLKRVSSTPETPLTKRSVAARSPRQLLSPSSFSPSATPSQKYTSRTNRGEVVTTFGSAQGLSWSGRGGSGSVSLKVVGDPEPLTGSYKAMFQQLMGVREVLTSKIEELGSELKEHHKIEAFTPLLVPAQEPVILLGQIGCDSNGKLNSKSVILEGDQEHSYGAQIPVDLSELKEYSLFPGQVVIMEGFNTTGRRLTATKLYEGVPLPFYQPTEEEGASEQTMVVVACGPYTTSDSITYDPLLDLIAIINRDQPDVCILFGPFLDAKHEQVENCKLTSPFEDVFKQCLRTVIEGTRSSGSHLVFVPSLRDVHHEPVYPQPPFTFSELSREDKKRVQFVSEPCSLSINGVMFGLTSTDLLFHIGAEEIFSSSGTSDRFSRVLKHILTQRSYYPLYPPHEDMAIDYENFYTYAQLPVTPDVFIVPSELRYFVKDIFGCVCVNPGRLTKGQVGGTFGRLYLRRQPKAMDGGGRQGLSVAAQVVRI",binds,,,
"ATAD2 (protein, UniProt Q8CDM1 1-1040) MSLLKMRRHAIHSSDSTSSSSSEDDCFERRTKRNRNRAINRCLPLNFRKDEIRGIYKDRMKIGASLADVDPMQLDTSVRFDSVGGLSSHIAALKEMVVFPLLYPEVFEKFKIQPPRGCLFYGPPGTGKTLVARALANECSRGDKRVAFFMRKGADCLSKWVGESERQLRLLFDQAYQMRPAIIFFDEIDGLAPVRSSRQDQIHSSIVSTLLALMDGLDSRGEIVVIGATNRLDSIDPALRRPGRFDREFLFSLPDKNARKEILKIHTRDWNPKPVDMFLEELAEHCVGYCGADIKSICAEAALCALRRRYPQIYTTSEKLQLDLSSITISAKDFEAALQKIRPASQRAVTSPGQALSAIVKPLLQNTVHRILDALQKVFPHVEVGTNKSLNSDVSCPFLESDLAYSDDDTPSVYENGLSQKENLNFLHLNRNACYQPMSFRPRLLIVGEPGFGQSSHLAPAVIHALEKFTVYTLDIPVLFGISTTSPEEACSQMIREAKRTAPSIVYVPHIHLWWEIVGPTLKATFTTLLQTIPSFAPVLLLATSEKPYSALPEEVQELFTHDYGEIFNVQLPDKEERTKFFEDLILKQASKPPVSQKKAVLQALEVLPVAPPPEPRPLTAEEVKRLEEQEEDTFRELRIFLRNVTHRLAIDKRFRVFTKPVDPDEVPDYVTVIKQPMDLSSVISKIDLHKYLTVKDYLKDIDLICSNALEYNPDRDPGDRLIRHRACALRDTAYAIIKEELDEDFEQLCEEIQESRKKRGCSSSKYAPSYYHVMPKQNSPPVGDKKPDQEQNEKLKVPCTPVACSTPAQLKRKFHKKSKWHVGTKIKRRKISQAKDNSLNAMNSSSRSDTEDSQHTHAEHTEPGNTDESSVEESDKQNRLESNIDLKNNSSSSNIENELEEPKETTEGTELRKDRIVCRGDASASQVTDIPEDSESKEMDFLRMTLARGSQVEQQELISMEQALAILSQPTPSLVLDHKQLTNILKTVVKKSQKYNIFQLENLYAVISQCIYEHRRDYDKTALVQKMEQAVENFNCSRS",binds,binds,binds,
"DNA polymerase delta subunit 3 (POLD3), mouse (protein, UniProt Q9EQ28 1-462) MAEQLYLENIDEFVTDQNKIVTYKWLSYTLGVHVNQAKQMLYEYVERKRKENSGAQLHVTYLVSGSLIQNGHSCHKVAVVREDKLEAVKSKLAVTASIHVYSIQKAMLKDSGPLFNTDYDILKSNLQNCSKFSAIQCAAAVPRAPAESPSSRKYEQSNLQAASEAQASELTTNGHGPPASKQASQQPKGIMGMLISKAATKTQDTNKETKPEAREVTSASSAGGKAPGKGSVMSNFFGKAAMNKLKVNLDSEQAVKEEKTVEQPPVSVTEPKLAAPPAQKKSSRKSEPGKVQQKEKSSRGKRVDLSDEEAKETEHLKKKRRRIKLPQSDSSEDEVFEDSPEMYEADSPSPPPVSPPPDPMPKTEPPPVKRSSGETKRRRKRVLKSKTFVDEEGCIVTEKVYESESCTDSEEELKMKPASAHKPPAAAVKREPREERKGPKKGAAALGKANRQVSITGFFQKK",binds,,,binds
"NAP1L1 (protein, UniProt P28656 1-391) MADIDNKEQSELDQDLEDVEEVEEEETGEETKIKARQLTVQMMQNPQILAALQERLDGLVDTPTGYIESLPKVVKRRVNALKNLQVKCAQIEAKFYEEVHDLERKYAVLYQPLFDKRFEIINAIYEPTEEECEWKPDEEDEVSEELKEKAKIEDEKKDEEKEDPKGIPEFWLTVFKNVDLLSDMVQEHDEPILKHLKDIKVKFSDAGQPMSFVLEFHFEPNDYFTNEVLTKTYRMRSEPDDSDPFSFDGPEIMGCTGCQIDWKKGKNVTLKTIKKKQKHKGRGTVRTVTKTVSNDSFFNFFAPPEVPENGDLDDDAEAILAADFEIGHFLRERIIPRSVLYFTGEAIEDDDDDYDEEGEEADEEGEEEGDEENDPDYDPKKDQNPAECKQQ",,binds,binds,

# Continued, values first:
binding [1],binding (POLE4-TurboID (mouse)),binding (POLE3-TurboID (mouse)),binding [2],Binder
binds,,,,"POLA1 (mouse) (protein, UniProt P33609 1-1465) MAPMHEEDCKLEASAVSDSGSFAASRARREKKSKKGRQEALERLKKAKAGEKYKYEVEDLTSVYEEVDEEQYSKLVQARQDDDWIVDDDGIGYVEDGREIFDDDLEDDALDTCGKGSDGKAHRKDRKDVKKPSVTKPNNIKAMFIASAGKKTTDKAVDLSKDDLLGDILQDLNTETAQITPPPVLIPKKKRSTGALLNPFSVHTPKAIPSGKPASPVLRNEPLLTPIPLKRAELAGELAQPECPEDEQELGVMEFEDGDFDESMDTEKVDEKPVTAKTWDQETEPVERVEHEADPERGTTSYLENFLPDVSCWDIDQDDESIPQEVQVDSSNLPLVKGADDEQVFQFYWLDAYEDPYNQPGVVFLFGKVWIESVKTHVSCCVMVKNIERTLYFLPREMKFDLNTGKETAIPVTMKDVYEEFDSKISAKYKIMKFKSKIVEKNYAFEIPDVPEKSEYLEVRYSAEVPQLPQNLKGETFSHVFGTNTSSLELFLMNRKIKGPCWLEVKNPQLLNQPISWCKFEVMALKPDLVNVIKDVSPPPLVVMSFSMKTMQNVQNHQHEIIAMAALVHHSFALDKAPPEPPFQTHFCVVSKPKDCIFPCDFKEVISKKNMKVEIAATERTLIGFFLAKVHKIDPDILVGHNICSFELEVLLQRINECKVPYWSKIGRLRRSNMPKLGSRSGFGERNATCGRMICDVEISAKELIHCKSYHLSELVQQILKTERIVIPTENIRNMYSESSYLLYLLEHIWKDARFILQIMCELNVLPLALQITNIAGNIMSRTLMGGRSERNEFLLLHAFYENNYIVPDKQIFRKPQQKLGDEDEEIDGDTNKYKKGRKKATYAGGLVLDPKVGFYDKFILLLDFNSLYPSIIQEFNICFTTVQRVTSEVQKATEDEEQEQIPELPDPNLEMGILPREIRKLVERRKQVKQLMKQQDLNPDLVLQYDIRQKALKLTANSMYGCLGFSYSRFYAKPLAALVTYKGREILMHTKDMVQKMNLEVIYGDTDSIMINTNSTNLEEVFKLGNKVKSEVNKLYKLLEIDIDAVFKSLLLLKKKKYAALVVEPTSDGNYITKQELKGLDIVRRDWCDLAKDTGNFVIGQILSDQSRDTIVENIQKRLIEIGENVLNGSVPVSQFEINKALTKDPQDYPDRKSLPHVHVALWINSQGGRKVKAGDTVSYVICQDGSNLTATQRAYAPEQLQKLDNLAIDTQYYLAQQIHPVVARICEPIDGIDAVLIALWLGLDSTQFRVHQYHKDEENDALLGGPAQLTDEEKYKDCEKFKCLCPSCGTENIYDNVFEGSGLDMEPSLYRCSNVDCKVSPLTFMVQLSNKLIMDIRRCIKKYYDGWLICEEPTCCSRLRRLPLHFSRNGPLCPVCMKAVLRPEYSDKSLYTQLCFYRYIFDADCALEKLTEHEKDKLKKQFFPLRVLQDYRKVKNIAEQFLSWSGYSEVNLSKLFANYAGKS"
,binds,binds,,"NAP1L4 (protein, UniProt Q78ZA7 1-375) MAENSLSDGGPADSVEAAKNASNTEKLTDQVMQNPQVLAALQERLDNVSHTPSSYIETLPKAVKRRINALKQLQVRCAHIEAKFYEEVHDLERKYAALYQPLFDKRREFITGDVEPTDAESAWHSENEEEDKLAGDMKNKVVIAEKEAATVEELNPKGIPEFWFTIFRNVDMLSELVQEYDEPILKHLQDIKVKFSDPGQPMSFVLEFHFEPNDYFTNPVLTKTYKMKSEPDKADPFSFEGPEIVDCDGCTIDWKKGKNVTVKTIKKKQKHKGRGTVRTITKQVPNESFFNFFSPLKASGDGESLDEDSEFTLASDFEIGHFFRERIVPRAVLYFTGEAIEDDDNFEEGEEGEEEELEGDEEGEDEDDADVNPKV"
binds,binds,binds,,"helicase lymphoid-specific (HELLS) (protein, UniProt Q60848 1-821) MAEQTEPAVITPAMLEEEEQLEAAGLEKERKMLEEAQKSWDRESTEIRYRRLQHLLEKSNIYSKFLLTKMEQQQLEEQKKKEKLEKKKRSLKLTEGKSLVDGNGEKPVMKKKRGREDESYNISEVMSKEEILSVAKKHKDNEDESSSTTSLCVEDIQKNKDSNSMIKDRLSQTVRQNSKFFFDPVRKCNGQPVPFQQPKHFTGGVMRWYQVEGMEWLRMLWENGINGILADEMGLGKTVQCIATIALMIQRGVPGPFLVCGPLSTLPNWMAEFKRFTPEIPTLLYHGTREDRRKLVKNIHKRQGTLQIHPVVVTSFEIAMRDQNALQHCYWKYLIVDEGHRIKNMKCRLIRELKRFNADNKLLLTGTPLQNNLSELWSLLNFLLPDVFDDLKSFESWFDITSLSETAEDIIAKEREQNVLHMLHQILTPFLLRRLKSDVALEVPPKREVVVYAPLCNKQEIFYTAIVNRTIANMFGSCEKETVELSPTGRPKRRSRKSINYSELDQFPSELEKLISQIQPEVNRERTVVEGNIPIESEVNLKLRNIMMLLRKCCNHPYMIEYPIDPVTQEFKIDEELVTNSGKFLILDRMLPELKKRGHKVLVFSQMTSMLDILMDYCHLRNFIFSRLDGSMSYSEREKNIYSFNTDPDVFLFLVSTRAGGLGINLTAADTVIIYDSDWNPQSDLQAQDRCHRIGQTKPVVVYRLVTANTIDQKIVERAAAKRKLEKLIIHKNHFKGGQSGLSQSKNFLDAKELMELLKSRDYEREVKGSREKVISDEDLELLLDRSDLIDQMKASRPIKGKTGIFKILENSEDSSAECLF"

# No constants are given. Whether binding was seen depends on the method and setting. In cells and extracts the contact can be indirect. These calls come from enrichment with a bait or labelling near it, and not all partners need be listed.
